# Data: the supplement of paper PMC8728848
# This is one part of the list.
# Assays:
# Assay in all cases: glycan array binding signal (z-score within array); higher = stronger binding
# Conditions in all cases: glycan notation: IUPAC condensed, linker removed
# Gal(a1-3)Gal = target: Gal(a1-3)Gal
# Method in brief: (§1)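 The binding signal is a Z-score computed within each array and averaged over linkers. Arrays of the same protein sequence at different concentrations or buffers were also averaged together. Data originate from 3228 arrays in the Consortium for Functional Glycomics database, kept only where the protein sequence was available.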
# Gal(a1-3)Gal(b1-3)GlcNAc = target: Gal(a1-3)Gal(b1-3)GlcNAc
# Method in brief: as §1
# [1] = target: Gal(a1-3)Gal(b1-3)GlcNAc(b1-2)Man(a1-3)[Gal(a1-3)Gal(b1-3)GlcNAc(b1-2)Man(a1-6)]Man(b1-4)GlcNAc(b1-4)GlcNAc
# Method in brief: as §1
# [2] = target: Gal(a1-3)Gal(b1-3)GlcNAc(b1-3)GalNAc
# Method in brief: as §1
# [3] = target: Gal(a1-3)Gal(b1-3)[Fuc(a1-4)]GlcNAc(b1-2)Man(a1-3)[Gal(a1-3)Gal(b1-3)[Fuc(a1-4)]GlcNAc(b1-2)Man(a1-6)]Man(b1-4)GlcNAc(b1-4)GlcNAc
# Method in brief: as §1
# Gal(a1-3)Gal(b1-4)Glc = target: Gal(a1-3)Gal(b1-4)Glc
# Method in brief: as §1
# Gal(a1-3)Gal(b1-4)GlcNAc = target: Gal(a1-3)Gal(b1-4)GlcNAc
# Method in brief: as §1
# [4] = target: Gal(a1-3)Gal(b1-4)GlcNAc(b1-3)GalNAc
# Method in brief: as §1
# [5] = target: Gal(a1-3)Gal(b1-4)[Fuc(a1-3)]GlcNAc
# Method in brief: as §1
# [6] = target: Gal(a1-3)Gal(b1-4)[Fuc(a1-3)]GlcNAc(b1-2)Man(a1-3)[Gal(a1-3)Gal(b1-4)[Fuc(a1-3)]GlcNAc(b1-2)Man(a1-6)]Man(b1-4)GlcNAc(b1-4)GlcNAc
# Method in brief: as §1
# Gal(a1-3)GalNAc = target: Gal(a1-3)GalNAc
# Method in brief: as §1
# [7] = target: Gal(a1-3)[Gal(a1-4)]Gal(b1-4)GlcNAc
# Method in brief: as §1
# [8] = target: Gal(a1-4)Gal(b1-3)GlcNAc(b1-2)Man(a1-3)[Gal(a1-4)Gal(b1-3)GlcNAc(b1-2)Man(a1-6)]Man(b1-4)GlcNAc(b1-4)GlcNAc
# Method in brief: as §1
# Gal(a1-4)Gal(b1-4)Glc = target: Gal(a1-4)Gal(b1-4)Glc
# Method in brief: as §1
# Gal(a1-4)Gal(b1-4)GlcNAc = target: Gal(a1-4)Gal(b1-4)GlcNAc
# Method in brief: as §1
# [9] = target: Gal(a1-4)Gal(b1-4)GlcNAc(b1-2)Man(a1-3)[Gal(a1-4)Gal(b1-4)GlcNAc(b1-2)Man(a1-6)]Man(b1-4)GlcNAc(b1-4)GlcNAc
# Method in brief: as §1
# [10] = target: Gal(a1-4)Gal(b1-4)GlcNAc(b1-3)Gal(b1-4)Glc
# Method in brief: as §1
# Gal(a1-4)GlcNAc = target: Gal(a1-4)GlcNAc
# Method in brief: as §1
# Gal(a1-6)Glc = target: Gal(a1-6)Glc
# Method in brief: as §1
# Gal(b1-2)Gal = target: Gal(b1-2)Gal
# Method in brief: as §1
# Gal(b1-3)Gal = target: Gal(b1-3)Gal
# Method in brief: as §1
# Gal(b1-3)Gal(b1-4)GlcNAc = target: Gal(b1-3)Gal(b1-4)GlcNAc
# Method in brief: as §1
# [11] = target: Gal(b1-3)Gal(b1-4)GlcNAc(b1-2)Man(a1-3)[Gal(b1-3)Gal(b1-4)GlcNAc(b1-2)Man(a1-6)]Man(b1-4)GlcNAc(b1-4)GlcNAc
# Method in brief: as §1
# Gal(b1-3)GalNAc = target: Gal(b1-3)GalNAc
# Method in brief: as §1
# [12] = target: Gal(b1-3)GalNAc(a1-3)[Fuc(a1-2)]Gal(b1-4)Glc
# Method in brief: as §1
# [13] = target: Gal(b1-3)GalNAc(a1-3)[Fuc(a1-2)]Gal(b1-4)GlcNAc
# Method in brief: as §1
# [14] = target: Gal(b1-3)GalNAc(b1-3)Gal(a1-4)Gal(b1-4)Glc
# Method in brief: as §1
# [15] = target: Gal(b1-3)GalNAc(b1-4)Gal(b1-4)Glc
# Method in brief: as §1
# [16] = target: Gal(b1-3)GalNAc(b1-4)[Neu5Ac(a2-3)]Gal(b1-4)Glc
# Method in brief: as §1
# Gal(b1-3)GlcNAc = target: Gal(b1-3)GlcNAc
# Method in brief: as §1
binder,measurement,setting,value
"NanH (Corynebacterium diphtheriae), C6JSW6 (protein) MYSSNRTYSRAILGLSAVLTLSFTSLVAPVNAEEPETVVPATAELEGEVAATLPSAETGLLDAAPPKPVARGAAGDLQLPAVNEKEVFEEGRVIRAPEPDQSRCYRIPALVTAKNGDLLLAFDNRYGGGDGAKTWCRDAPYENMKRINRQNMQTDIQLYRSVDNGQSFEDFGYIAQGTADVRELSYTDPALVTDRTTGKIFAFFVRAYDYRVGQSSAGFNEGDVEAEIQKRDVQDTVVVESLDGGQTWGNMRLLSALTAKVSSISTGDTIFDGRGRFVTSGAGIQLQYGEHAGRLIVPISVDIDPKDSAKFINLAIYSDDHGQTWQAGIGTAGGAGFSGDVSKIVELSDGRLMMSSKDNDKPRWVSYSEDQGENWSTPKRKIIAPPQHPEKHNTGINVGLIRAYPNAPENSAAARVLLYSAPIDQRYSHKHTEDGRNNGWVMGSCDDGKTWSFGRQIEKNRFQYSSMTVMSDGNIGMVYESGDFSTGMNLKFAKFNMAWLGADCHSNEALGLTGDIDKEIVEAQEKAAEATKEAQEAAEKVQKLTEELAAARKENDELKNQVKGFKEAVGDLANEAEDLADKVFKLETAVTEAKEKATVAEKAASDAVTQLQKAESIAEEQKAKAESAAAEAQALREKLERLEGSILTVKENPEAEEIADLSSTAKDAADAARRAATDANGALSGQKQDEEKPAMGLMGILKVLAGIIPLVAIIATIFQTFRLPFNIPGMR",glycan array binding signal (z-score),Gal(a1-3)Gal,1.1
same,glycan array binding signal (z-score),Gal(a1-3)Gal(b1-3)GlcNAc,0.873
same,glycan array binding signal (z-score),[1],1.19
same,glycan array binding signal (z-score),[2],-1.11
same,glycan array binding signal (z-score),[3],0.712
same,glycan array binding signal (z-score),Gal(a1-3)Gal(b1-4)Glc,-0.275
same,glycan array binding signal (z-score),Gal(a1-3)Gal(b1-4)GlcNAc,0.369
same,glycan array binding signal (z-score),[4],-0.788
same,glycan array binding signal (z-score),[5],-0.653
same,glycan array binding signal (z-score),[6],0.405
same,glycan array binding signal (z-score),Gal(a1-3)GalNAc,-0.569
same,glycan array binding signal (z-score),[7],0.396
same,glycan array binding signal (z-score),[8],-1.17
same,glycan array binding signal (z-score),Gal(a1-4)Gal(b1-4)Glc,-0.865
same,glycan array binding signal (z-score),Gal(a1-4)Gal(b1-4)GlcNAc,0.209
same,glycan array binding signal (z-score),[9],-0.762
same,glycan array binding signal (z-score),[10],0.362
same,glycan array binding signal (z-score),Gal(a1-4)GlcNAc,-0.105
same,glycan array binding signal (z-score),Gal(a1-6)Glc,-0.801
same,glycan array binding signal (z-score),Gal(b1-2)Gal,2.93
same,glycan array binding signal (z-score),Gal(b1-3)Gal,-0.658
same,glycan array binding signal (z-score),Gal(b1-3)Gal(b1-4)GlcNAc,0.37
same,glycan array binding signal (z-score),[11],0.074
same,glycan array binding signal (z-score),Gal(b1-3)GalNAc,0.582
same,glycan array binding signal (z-score),[12],1.05
same,glycan array binding signal (z-score),[13],-0.002
same,glycan array binding signal (z-score),[14],0.474
same,glycan array binding signal (z-score),[15],1.25
same,glycan array binding signal (z-score),[16],-0.63
same,glycan array binding signal (z-score),Gal(b1-3)GlcNAc,-0.038
